Source: PubChem BioAssay AID2685 (National Center for Advancing Translational Sciences (NCATS), 2010)
In all, about 320,000 compounds went through this assay and about 2,100 (0.66%) were called active. This list was built around the results that the source calls inconclusive (neither active nor inactive); the mix of calls is not that of the screen. Calls follow the shape of the dose curve; as a rule, active = well fitted inhibition curve with a large enough effect in the signal ratio, with a control signal flat (not every such curve was filed as active); inconclusive = small, poorly fitted or top-dose-only effect, or effect the other way, or a change in a side signal; inactive = flat fitted curve, though single readings scatter; the % refers to the signal ratio. Potencies of inconclusive entries are doubtful fits and often do not repeat.

Experiment: qHTS Assay for Lipid Storage Modulators in Drosophila S3 Cells
Details: BODIPY lipid droplet fluorescence, 18-24 h, cells fed with added oleic acid; lipid storage change, negative = inhibition: at 46.1 µM (top of the series) unless noted
How it was run: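 Laser-scanning cytometry quantifies lipid droplet accumulation (500–530 nm total intensity; droplet/cell object ratio) in oleic acid-fed (400 uM added) Drosophila S3 cells treated with a concentration series. 20 uM Triacsin C defined 100% inhibition.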
% is scaled to controls: 0 for no effect and ±100 for the full control effect; potency is read from the fitted curve at half-maximal effect.

Structure (SMILES) | lipid storage change, negative = inhibition | Potency
Cc1cc(C(C2C(=O)CC(C)(C)CC2=O)C2C(=O)CC(C)(C)CC2=O)cc(C)c1OC(F)F | inconclusive: -28.7% | 
Cc1cc(C)c2c(=O)n(CC(=O)Nc3ccc(Br)c(C)c3)sc2n1 |  | inconclusive: 32.6 µM [cytotoxic, partial curve, poor fit]
O=S(=O)(Nc1ccc(-n2cnnn2)cc1)c1ccc(Cl)cc1 | inactive | 
O=C(NCc1ccccc1)c1ccc(S(=O)(=O)NCc2ccco2)cc1 | inconclusive: 77.8% | 
COc1ccc2c(c1)c(=O)c(C(=O)c1ccc(F)cc1)cn2CC(=O)Nc1ccc(F)cc1 | inconclusive: 1.42% | 
Cc1ccccc1C(=O)N1CCCN(C(=O)c2ccccc2C)CC1 | inconclusive: -4.67% | 
CN1CCN(S(=O)(=O)c2cccc(C(=O)N(C)Cc3c(F)cccc3Cl)c2)CC1 | inconclusive: -35% | 
c1ccc(CN2CCC(Nc3ncnc4sccc34)CC2)cc1 | inconclusive: 24.9% | 
Cc1ccc(NC(=S)N2CCCC2)cc1C | inconclusive: -0.592% | 
COc1ccc(-n2c(C)cc(C(=O)CN3C(=O)c4ccccc4C3=O)c2C)cc1 | inconclusive: -18.8% | 
Cc1onc(-c2ccccc2)c1C(=O)Nc1ccccc1C#N | inconclusive: -15.5% | 
Cc1ccc(S(=O)(=O)N2CCC(C(=O)C3C(=O)CCCC3=O)CC2)cc1 | inconclusive: -12.9% | 
CC(C1CC1)N(Cc1ccccc1)C(=O)NC(=O)c1ccccc1 (centres undefined) | inconclusive: 10.7% | 
CC(C)(C)C1CCC(C(=O)Nc2cccnc2)CC1 (centres undefined) | inconclusive: 14% | 
O=C(CCNS(=O)(=O)c1ccc(Br)cc1)N1CCCCCCC1 | inconclusive: -27.2% | 
O=C(C1CCN(C2CCN(C/C=C/c3ccccc3)CC2)CC1)N1CCOCC1 | inactive | 
CCN(CC)CCNS(=O)(=O)c1ccc(/C=C/C(=O)O)cc1 | inconclusive: 2.52% | 
CC(C)CC(=O)NN1CCCCC1 |  | inconclusive: 0.0058 µM [falling, full curve, poor fit]
O=C(c1ccc(CN2CCOCC2)cc1)N1CCN(Cc2ccccc2)CC1 | inconclusive: -31.6% | 
Cc1noc(/C=C/N(C)C)c1S(=O)(=O)N1CCCC(C(=O)NCc2ccc(F)cc2)C1 (centres undefined) |  | inconclusive: 0.0046 µM [activator, full curve, poor fit]
CCCNC(=O)c1ccccc1NC(=O)COc1cccc2c1OC(C)(C)C2 |  | inconclusive: 6.51 µM [activator, single point]
O=C(O)CSc1nnc(-c2ccc(Cl)cc2Cl)n1-c1ccc(Br)cc1 | inconclusive: 13.5% | 
OCC1(CC2CCCCO2)CCN(Cc2nc3ccccc3[nH]2)CC1 (centres undefined) | inconclusive: -13.4% | 
CCc1nnc(NS(=O)(=O)c2ccc(NC(=S)NC(=O)/C=C/c3ccc([N+](=O)[O-])cc3)cc2)s1 | inconclusive: -6.62% | 
CCOC(=O)N1CCN(C2CC(=O)N(c3ccccc3)C2=O)CC1 (centres undefined) | inconclusive: 96.7% | 

Structure (SMILES) | lipid storage change, negative = inhibition | Potency
O=C(Nc1ccc(N2CCN(C(=O)c3cccs3)CC2)c(Cl)c1)c1ccco1 |  | inconclusive: 2.06 µM [activator, partial curve, poor fit]
O=[N+]([O-])c1ccc2nccn2c1 |  | inconclusive: 6.51 µM [activator, single point]
NC(=O)c1ccsc1NC(=O)COC(=O)/C=C/c1ccccc1 |  | inconclusive: 2.91 µM [activator, partial curve]
COc1ccc(/C=C/c2onc(C)c2S(=O)(=O)N2CCC(C(=O)N3CCC(C)CC3)CC2)cc1 |  | inconclusive: 8.2 µM [activator, partial curve]
S=c1[nH]nc(COc2cccc3ccccc23)n1Cc1ccccc1 | inconclusive: -5.74% | 
N#CCCN(C(=S)Nc1ccc(S(=O)(=O)N2CCOCC2)cc1)c1ccccc1F | inconclusive | 
Cc1ccc(C)c(NC(=O)COC(=O)CC2c3ccccc3CCN2S(=O)(=O)c2ccc(F)cc2)c1 (centres undefined) |  | inconclusive: 29.1 µM [falling, partial curve, poor fit]
C=CCOc1ccc(Cl)cc1C(=O)O | inconclusive: -50% | 
CC(C)(C)OC(=O)CNC(=O)c1nc[nH]c1C(=O)N1CCN(C(=O)OC(C)(C)C)CC1 | inconclusive: 3.38% | 
O=C(NCCN1CCCCC1)Nc1ccc(F)c(Cl)c1 | inconclusive: -2.52% | 
Cc1ccc(C(=O)NNC(=O)c2cc3ccccc3cc2O)cc1 | inconclusive: 41.7% | 
Cn1cnnc1SCC(=O)c1ccc(OC(F)F)cc1 | inconclusive: 12.9% | 
N/C(Cn1cncn1)=N\NC(=O)C(=O)Nc1ccccc1 |  | inconclusive: 6.51 µM [falling, single point]
COc1ccccc1CN1C[C@@H]2C[C@@H](c3cccc(C)n3)N3CCC[C@@]23C1=O | inconclusive: 38.4% | 
Cc1cccc(N2CCN(C(=O)c3ccc(-n4cncn4)c([N+](=O)[O-])c3)CC2)c1C | inconclusive: 8.61% | 
Nc1c(C(=O)NC2CCCCC2)nsc1C(=O)OCC(=O)NC1CCCCC1 | inactive | 
CC(=O)C1C(c2ccc(O)cc2)NC(=O)NC1(O)C(F)(F)F (centres undefined) | inconclusive: -11.8% | 
CC(=O)Nc1ccc2c(c1)CCc1ccccc1-2 | inconclusive: 19.9% | 
COc1ccc(C(C(=O)NCCC(C)C)N(CCO)C(=O)c2snc(C(N)=O)c2N)cc1OC (centres undefined) | inconclusive: 67.8% | 
COC(=O)C(Cc1ccc(O)cc1)NC(=O)C(C)NC(=O)c1ccc(C(C)(C)C)cc1 (centres undefined) |  | inconclusive: 29.1 µM [falling, single point]
CCOc1cc(CO)c(Br)cc1OCC(=O)O |  | inconclusive: 29.1 µM [falling, single point]
Cn1c(SCC(=O)Nc2ccc(F)cc2)nc2c([nH]c3ccccc32)c1=O |  | inconclusive: 0.058 µM [activator, partial curve, poor fit]
O=C1Nc2ccc(F)cc2C12Nc1ccccc1-c1nnc(SCc3ccccc3Cl)nc1O2 (centres undefined) | inconclusive: -49% | 
CCOc1ccc2oc(C(=O)Nc3ccc4c(c3)OCO4)c(C)c2c1 | inconclusive: 22.9% | 
